Results are given in words; binding and its absence hold for the method and conditions named. In cells and extracts the contact can be indirect. Some entries that bind do so weakly or less than the wild type. Where a sequence is shown, tags or fusion partners need not be part of it.
Columns and labels:
[1] = biological target: T1, BakΔ3 (N-terminal deletion mutant of Bak, amino acids 96-210 of full-length Bak) (Homo sapiens (Human)) (UniProt Q16611); assay: GST pull-down from Sf9 extract, immunoblot with anti-Bak
T1 sequence: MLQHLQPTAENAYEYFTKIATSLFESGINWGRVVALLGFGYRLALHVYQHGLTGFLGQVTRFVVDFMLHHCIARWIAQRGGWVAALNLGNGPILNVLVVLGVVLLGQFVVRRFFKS

[2] = biological target: T2, synthetic peptide of the first 50 residues of Bak (Bak 1-50); assay: GST pull-down of synthetic peptide (100 µg), Western blot
T2 sequence (peptide): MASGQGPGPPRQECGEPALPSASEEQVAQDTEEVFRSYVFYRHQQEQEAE

Binder | binding [1] | binding [2]
MAASSQGNFEGNFESLDLAEFAKKQPWWRKLFGQESGPSAEK (peptide, not shown: a dimerising Fc or GST) [gst fusion protein containing BBP-Loop1 (N-terminal 42 amino acid portion of BBP)] | binds | binds
HTGYIKVDWQRVEKDMKKAKEQLKIRKSNQIPTEVRSKAEEVVSFVKK (peptide, not shown: a dimerising Fc or GST) [gst fusion protein containing BBP-Loop2 (internal loop of BBP, amino acids 86 through 133)] | – | binds
